From PubChem BioAssay AID485314 (National Center for Advancing Translational Sciences (NCATS), 2010)
The whole screen tested about 340,000 compounds, of which about 4,500 (1.3%) were called active. Inconclusive means that the source gave no clear call. Such entries were picked first, then a sample of the others. Calls come from the whole dose curve; as a rule, active = well fitted inhibition curve with a large enough effect; inconclusive = small, poorly fitted or top-dose-only effect, or another doubt; inactive = no such curve, though single readings can be large or run the other way. Potencies beside an inconclusive call are fits to weak or partial responses and may not hold up.

biological target: DNA polymerase beta (Homo sapiens) (UniProt P06746); assay: qHTS Assay for Inhibitors of DNA Polymerase Beta; conditions: Pol beta primer extension/strand displacement, fluorescence kinetic; activity change, negative = inhibition: at 114 µM (top of the series)
In short: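 Enzyme-only controls used 10 nM Pol beta; buffer lacking enzyme served as negative control. Compound preincubated 15 min, then 50 nM substrate added; 0 and 10 min reads at room temperature.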
% is set by controls: 0 for no effect and ±100 for the full control effect; potency is the fitted concentration of half-maximal effect.

Potency, active:
O=C(CNC(=O)/C=C/c1ccco1)N=Nc1c(O)[nH]c2ccccc12 8.91 µM
N=C1SC(c2ccccc2)C(=O)N1c1ncc(Cc2ccccc2Cl)s1 (stereo unspecified) 17.8 µM
COc1ccc(NC(=O)CSc2ccc(-c3ccco3)nn2)cc1 31.6 µM
O=C(C=C1SCCS1)/C=C/c1ccco1 22.4 µM
COc1ccc2occ(CC(=O)Nc3ccc(S(=O)(=O)Nc4nc(C)cc(C)n4)cc3)c2c1 28.2 µM
CC1(C)Cc2c(c(-c3ccco3)[nH]c(=O)c2C#N)CS1 28.2 µM
O=C1c2cccc3cc([N+](=O)[O-])cc(c23)C(=O)N1/N=C/c1ccc(O)cc1O 39.8 µM

Potency, inactive:
CCn1c(=O)c2c(nc3n2CCN3c2ccc(OC)cc2)n(C)c1=O
CCc1ccc(CNC(=O)CCc2c(C)nn(-c3ccc(N4CCCC4)nn3)c2C)cc1
CCN(CC)c1cc(C)c2cc(NC(=O)/C=C/c3cc(OC)c(OC)c(OC)c3)ccc2n1
O=C1NCCCC1C(=O)N/N=C/c1cccc([N+](=O)[O-])c1 (stereo unspecified)
O=C(N/C(=C\c1ccc(Br)cc1)C(=O)N1CCCC1)c1ccccc1F
CCc1cccc(-n2nnc(-c3nsc(NC(=O)c4cccc(OC)c4)n3)c2C)c1
Cc1cccc(CC(=O)N2CC(=O)Nc3ccc(Br)cc3C2c2ccc(F)cc2)c1 (stereo unspecified)
O=C(Cn1ncc2c3ccccc3n(Cc3ccccc3F)c2c1=O)NCc1ccccc1Cl
COc1ccc(NC(=O)c2ccco2)cc1NC(=O)C(C)(C)Oc1ccc(Cl)cc1
O=C(NC12CC3CC(CC(C3)C1)C2)c1ccc(=O)oc1
O=C(NC1CCCCC1)N1CCN(Cc2ccco2)CC1
COCc1cc(C)nc(SCC(=O)N2CCC(C)CC2)c1C#N
COC(=O)c1cc(NC(=O)Cn2nc(-c3ccc(C)c(C)c3)ccc2=O)cc(C(=O)OC)c1
O=C(O)c1ccc(N/N=C/c2cc3ccccc3nc2Cl)cc1
O=C(COC(=O)CCc1ccc(S(=O)(=O)N2CCOCC2)cc1)Nc1ccc(Cl)cn1
CC(C)(C)C(=O)NC1(C(F)(F)F)C(=O)Nc2c1c(=O)[nH]c(=O)n2-c1ccccc1 (stereo unspecified)
Cc1nnc(N2CCC(C(=O)NCCc3ccccc3)CC2)c2nn(-c3ccc(Cl)cc3)c(C)c12
COc1cc(OC)c(NS(=O)(=O)c2cc(-c3cnc(C4CC4)o3)ccc2C)cc1Cl
CCOc1ccc(-n2nc3cc(C)c(NC(=O)c4cc(OCC)c(OCC)c(OCC)c4)cc3n2)cc1
COc1ccc(NC(=O)CSc2nc3nc(C)c(Cc4ccccc4Cl)c(C)n3n2)cc1OC
Cc1ccccc1CCNC(=O)c1cc2cc(S(=O)(=O)N3CCCCC3)ccc2n1C
COc1cc(OC)c(OC)cc1CNc1sc2c(c1C(=O)Nc1ccccc1OC)CCC2

Potency, inconclusive:
COc1ccc(NC(=O)CN(C)S(=O)(=O)c2cccc3nsnc23)cc1OC 14.1 µM [inhibitor, single point]
CCCCCc1c(C)nc(NCc2ccccc2)[nH]c1=O 39.8 µM [inhibitor, single point]
Cc1ccc(-n2c(N)cc(=O)nc2SCC(=O)N2CCN(c3ccccc3)CC2)cc1C 79.4 µM [inhibitor, single point]
CCc1nnc(NS(=O)(=O)c2ccc(NC(=O)/C=C/c3ccccc3Cl)cc2)s1 89.1 µM [inhibitor, single point]
Nc1ccc(N2CCCCCC2)cc1 3.98 µM [inhibitor, full curve, poor fit]
Cc1ccccc1OCC(=O)NCC(=O)N/N=C/c1ccc(Br)o1 25.1 µM [inhibitor, full curve]
CCOc1cccc(N2C(=O)CC(N(CCc3ccc(OC)c(OC)c3)C(=O)CC)C2=O)c1 (stereo unspecified) 89.1 µM [inhibitor, single point]
Cc1ccc(C)c(Nc2nc(-c3ccncc3)nc3ccccc23)c1 50.1 µM [inhibitor, partial curve]
CCOc1ccc(CCNC(=O)c2cn(-c3ccc(OC)cc3)c(=O)c3ccccc23)cc1OCC 2 µM [inhibitor, full curve]
CC1CCCCN1S(=O)(=O)c1ccc(NC(=O)c2ccco2)cc1 (stereo unspecified) 25.1 µM [inhibitor, partial curve, poor fit]
Cc1coc2c(C)c3oc(=O)c(CCC(=O)NCCc4ccccc4F)c(C)c3cc12 3.98 µM [inhibitor, full curve, poor fit]
CCOC(=O)c1[nH]c(C=O)c(C(=O)OCC)c1C 79.4 µM [inhibitor, single point]
Cc1nc(N)sc1C(=O)N/N=C/c1cccnc1 0.141 µM [inhibitor, full curve, poor fit]
CCOc1ccc(CNC(=O)C2CCCN(c3nnc(C)c4c(C)n(-c5ccccc5)nc34)C2)cc1 (stereo unspecified) 79.4 µM [inhibitor, single point]
Cc1nn2c(nc1=O)SCC(c1ccccc1)=N2 89.1 µM [inhibitor, single point]
CCC(C)(C)n1nnnc1C(C(C)C)N1CCN(C)CC1 (stereo unspecified) 89.1 µM [inhibitor, single point]
Cc1ccc(/C=C/C(=O)c2ccc(O)cc2)cc1 63.1 µM [inhibitor, single point]
CC(=O)Nc1ccc(S(=O)(=O)N2CCCN(c3nc(C)cc(C)c3C#N)CC2)cc1 3.98 µM [inhibitor, single point]
CCC(CC)N1CCN(C(=O)c2cccc(Cl)c2)CC1 89.1 µM [inhibitor, single point]
CCOC(=O)c1ccc(Oc2nc(NC)nc(OC)n2)cc1 89.1 µM [inhibitor, single point]
COc1cc(NC(=O)Cn2c(=O)n(Cc3ccco3)c(=O)c3oc4ccccc4c32)cc(OC)c1 0.891 µM [inhibitor, full curve, poor fit]
Clc1ccc(-c2nnc(NCCN3CCCC3)c3ccccc23)cc1 17.8 µM [inhibitor, full curve, poor fit]
COc1ccc(-c2nnn(CC(=O)N(CC(=O)NC3CCCC3)Cc3cccs3)n2)cc1OC 11.2 µM [inhibitor, single point]
O=C(c1ccc(-c2ccccc2)cc1)N1CCN(c2ccccc2)CC1 3.98 µM [inhibitor, single point]
COc1ccc(-c2cn3cccnc3n2)cc1NC(=O)c1cc(C)cc(C)c1 25.1 µM [inhibitor, full curve, poor fit]
CCOC(=O)C1=C(C)N=c2s/c(=C/c3cccc([N+](=O)[O-])c3O)c(=O)n2C1c1cc(OC)c(OC)c(OC)c1 (stereo unspecified) 70.8 µM [inhibitor, single point]
COc1ccc(CCNC(=O)CCc2c(C)c3cc4c(C)coc4c(C)c3oc2=O)cc1OC 25.1 µM [inhibitor, single point]
CCc1cc(=O)oc2cc(C)cc(OC(C)C(=O)NC(Cc3c[nH]c4ccc(O)cc34)C(=O)O)c12 (stereo unspecified) 0.562 µM [inhibitor, full curve]
Cc1ccccc1CSc1ncc(CO)n1Cc1ccc(F)cc1 0.178 µM [inhibitor, full curve, poor fit]
COC(=O)c1ccc(Oc2coc3cc(OCc4ccc([N+](=O)[O-])cc4)ccc3c2=O)cc1 17.8 µM [inhibitor, full curve]
COCCN(CCOC)c1nc(-c2ccc([N+](=O)[O-])cc2)nc2ccccc12 39.8 µM [inhibitor, single point]
O=C(c1ccc(Cl)cc1)N1CCOc2ccccc21 2.51 µM [inhibitor, single point]
COc1ccc(C(=O)OCCOc2ccccc2C(C)=O)c(O)c1 22.4 µM [inhibitor, full curve, poor fit]
CCOc1ccc2nc(NC(=O)C(CC)Sc3nc(C)cc(=O)[nH]3)sc2c1 (stereo unspecified) 89.1 µM [inhibitor, single point]
CCN(C(=O)CSc1cc(C)c2ccccc2n1)c1c(N)n(Cc2ccccc2)c(=O)[nH]c1=O 50.1 µM [inhibitor, partial curve, poor fit]
COc1ccc2[nH]c3c(NCCC4=CCCCC4)ncnc3c2c1 1 µM [inhibitor, full curve, poor fit]
Cc1ccc(/C=N/Nc2ccc(C(=O)O)cc2)s1 50.1 µM [inhibitor, partial curve]
COc1ccc(N/C=C/c2nc(SC)nnc2C)cc1 79.4 µM [inhibitor, single point]
Cc1ccc(CCNC(=O)CCS(=O)(=O)c2cc3c(cc2C)NC(=O)CO3)cc1 79.4 µM [inhibitor, single point]

Fetched by compound from the list above:
Potency, inconclusive:
CCOC(=O)c1[nH]c(C=O)c(C(=O)OCC)c1C 79.4 µM [inhibitor, single point]
COc1ccc(-c2nnn(CC(=O)N(CC(=O)NC3CCCC3)Cc3cccs3)n2)cc1OC 11.2 µM [inhibitor, single point]

Following part:

Activity change, negative = inhibition, inconclusive:
CCOc1ccc(CNC(=O)C2CCCN(c3nnc(C)c4c(C)n(-c5ccccc5)nc34)C2)cc1 (stereo unspecified) -42.3% [inhibitor]
O=C(O)CCN1CCc2ccccc2C1c1ccncc1 (stereo unspecified) -34.1% [inhibitor]
O=C(Nc1ccc2oc(-c3ccncc3)nc2c1)c1ccc2c(c1)OCCO2 -45.9% [inhibitor]
